From article PMC6532946, “Structure and assembly of pilotin-dependent and -independent secretins of the type II secretion system” (PLoS Pathogens, 2019)
No constants are given. Whether binding was seen depends on the method and setting. Some results given as binding are weak or reduced against the parent protein; the word gives no strength.

Target: ExeD wild type in A. hydrophila cells (A. hydrophila) (UniProt P31780)
Test: immunoblot of the multimeric and monomeric forms after SDS-PAGE; whole cell samples of A. hydrophila Ah65 or AhD14 expressing WT or S-domain mutant ExeDs, mid- and late-log phase; samples heated to 95°C in sample buffer containing 2% SDS; ExeD antiserum

B1: ExeD secretin from A. hydrophila (cell-free synthesized, His-tagged) (natural protein)
chain: TEYSASFKNADIEEFINTVGKNLSKTIIIEPSVRGKINVRSYDLLNEEQYYQFFLSVLDVYGFAVVPMDNGVLKVVRSKDAKTSAIPVVDETNPGIGDEMVTRVVPVRNVSVRELAPLLRQLNDNAGGGNVVHYDPSNVLLITGRAAVVNRLVEVVRRVDKAGDQEVDIIKLKYASAGEMVRLVTNLNKDGNSQGGNTSLLLAPKVVADERTNSVVVSGEPKARARIIQMVRQLDRDLQSQGNTRVFYLKYGKAKDMVEVLKGVSSSIEADKKGGGTATTAGGGASIGGGKLAISADETTNALVITAQPDVMAELEQVVAKLDIRRAQVLVEAIIVEIADGDGLNLGVQWANTNGGGTQFTNAGPGIGSVAIAAKDYKDNGTTTGLAKLAENFNGMAAGFYQGNWAMLVTALSTNTKSDILSTPSIVTMDNKEASFNVGQEVPVQTGTQNSTSGDTTFSTIERKTVGTKLVVTPQINEGDSVLLTIEQEVSSVGKQATGTDGLGPTFDTRTVKNAVLVKSGETVVLGGLMDEQTKEEVSKVPLLGDIPVLGYLFRSTSNNTSKRNLMVFIRPTILRDANVYSGISSNKYTLFRAQQLDAVAQEGYATSPDRQVLPEYGQDVTMSPEAQKQIELMKTHQQATADGVQPFVQGNK
notes: ExeD, T2SS secretin of Aeromonas hydrophila; a TEV cleavage site linker lies between the His-6 tag and the protein. numbers count on: the mature protein; No TEV cleavage is described; also called pilotin-independent ExeD; GspD; source: cell-free expression system with liposomes, extracted as multimers with Zw3-14, purified (Ni-NTA, Superose 6); copies: 15
**Q.** With B1 as the binder, how does the binding read?
**A.** binds
